Measurements reported in US20250283871A1, “COMPOSITIONS AND METHODS FOR MODULATING THE INTERACTION BETWEEN SS18-SSX FUSION ONCOPROTEIN AND NUCLEOSOMES” (Dana-Farber Cancer Institute, Inc., priority 2020, published 2025).

B1: ZNF579 (protein, UniProt Q8NAF0 1-562, looked up)
Zinc finger protein 579: MDPQPPPPAQGSPPHRGRGRGRGRGRGRGRGRGRGGAGAPRAPLPCPTCGRLFRFPYYLSRHRLSHSGLRPHACPLCPKAFRRPAHLSRHLRGHGPQPPLRCAACPRTFPEPAQLRRHLAQEHAGGEVELAIERVAKETAEPSWGPQDEGSEPPTTAAAGATEEEAVAAWPETWPAGEPSTLAAPTSAAEPRESESEEAEAGAAELRAELALAAGRQEEKQVLLQADWTLLCLRCREAFATKGELKAHPCLRPEGEQEGEGGPPPRPKRHQCSICLKAFARPWSLSRHRLVHSTDRPFVCPDCGLAFRLASYLRQHRRVHGPLSLLAPLPAAGKKDDKASGARNSAKGPEGGEGAECGGASEGGEGQNGGDAAPARPPAGEPRFWCPECGKGFRRRAHLRQHGVTHSGARPFQCVRCQREFKRLADLARHAQVHAGGPAPHPCPRCPRRFSRAYSLLRHQRCHRAELERAAALQALQAQAPTSPPPPPPPLKAEQEEEGLPLPLANIKEEPPSPGTPPQSPPAPPVFLSASCFDSQDHSAFEMEEEEVDSKAHLRGLGGLAS
B2: BLMH (protein, UniProt Q13867 1-455, looked up)
Bleomycin hydrolase: MSSSGLNSEKVAALIQKLNSDPQFVLAQNVGTTHDLLDICLKRATVQRAQHVFQHAVPQEGKPITNQKSSGRCWIFSCLNVMRLPFMKKLNIEEFEFSQSYLFFWDKVERCYFFLSAFVDTAQRKEPEDGRLVQFLLMNPANDGGQWDMLVNIVEKYGVIPKKCFPESYTTEATRRMNDILNHKMREFCIRLRNLVHSGATKGEISATQDVMMEEIFRVVCICLGNPPETFTWEYRDKDKNYQKIGPITPLEFYREHVKPLFNMEDKICLVNDPRPQHKYNKLYTVEYLSNMVGGRKTLYNNQPIDFLKKMVAASIKDGEAVWFGCDVGKHFNSKLGLSDMNLYDHELVFGVSLKNMNKAERLTFGESLMTHAMTFTAVSEKDDQDGAFTKWRVENSWGEDHGHKGYLCMTDEWFSEYVYEVVVDRKHVPEEVLAVLEQEPIILPAWDPMGALAE
B3: NOL8 (protein, UniProt Q76FK4 1-1167, looked up)
Nucleolar protein 8: MKVNRETKRLYVGGLSQDISEADLQNQFSRFGEVSDVEIITRKDDQGNPQKVFAYINISVAEADLKKCMSVLNKTKWKGGTLQIQLAKESFLHRLAQEREAAKAKKEESTTGNANLLEKTGGVDFHMKAVPGTEVPGHKNWVVSKFGRVLPVLHLKNQHKRKIIKYDPSKYCHNLKKIGEDFSNTIPISSLTWELEGGNDPMSKKRRGEFSDFHGPPKKIIKVQKDESSTGSLAMSTRPRRVIERPPLTQQQAAQKRTCDSITPSKSSPVPVSDTQKLKNLPFKTSGLETAKKRNSISDDDTDSEDELRMMIAKEENLQRTTQPSINESESDPFEVVRDDFKSGVHKLHSLIGLGIKNRVSCHDSDDDIMRNDREYDSGDTDEIIAMKKNVAKVKNSTEFSQMEKSTKKTSFKNRENCELSDHCIKLQKRKSNVESALSHGLKSLNRKSPSHSSSSEDADSASELADSEGGEEYNAMMKNCLRVNLTLADLEQLAGSDLKVPNEDTKSDGPETTTQCKFDRGSKSPKTPTGLRRGRQCIRPAEIVASLLEGEENTCGKQKPKENNLKPKFQAFKGVGCLYEKESMKKSLKDSVASNNKDQNSMKHEDPSIISMEDGSPYVNGSLGEVTPCQHAKKANGPNYIQPQKRQTTFESQDRKAVSPSSSEKRSKNPISRPLEGKKSLSLSAKTHNIGFDKDSCHSTTKTEASQEERSDSSGLTSLKKSPKVSSKDTREIKTDFSLSISNSSDVSAKDKHAEDNEKRLAALEARQKAKEVQKKLVHNALANLDGHPEDKPTHIIFGSDSECETEETSTQEQSHPGEEWVKESMGKTSGKLFDSSDDDESDSEDDSNRFKIKPQFEGRAGQKLMDLQSHFGTDDRFRMDSRFLETDSEEEQEEVNEKKTAEEEELAEEKKKALNVVQSVLQINLSNSTNRGSVAAKKFKDIIHYDPTKQDHATYERKRDDKPKESKAKRKKKREEAEKLPEVSKEMYYNIAMDLKEIFQTTKYTSEKEEGTPWNEDCGKEKPEEIQDPAALTSDAEQPSGFTFSFFDSDTKDIKEETYRVETVKPGKIVWQEDPRLQDSSSEEEDVTEETDHRNSSPGEASLLEKETTRFFFFSKNDERLQGSDLFWRGVGSNMSRNSWEARTTNLRMDCRKKHKDAKRKMKPK
B4: ENO3 (protein, UniProt P13929 2-434, looked up)
Beta-enolase: AMQKIFAREILDSRGNPTVEVDLHTAKGRFRAAVPSGASTGIYEALELRDGDKGRYLGKGVLKAVENINNTLGPALLQKKLSVVDQEKVDKFMIELDGTENKSKFGANAILGVSLAVCKAGAAEKGVPLYRHIADLAGNPDLILPVPAFNVINGGSHAGNKLAMQEFMILPVGASSFKEAMRIGAEVYHHLKGVIKAKYGKDATNVGDEGGFAPNILENNEALELLKTAIQAAGYPDKVVIGMDVAASEFYRNGKYDLDFKSPDDPARHITGEKLGELYKSFIKNYPVVSIEDPFDQDDWATWTSFLSGVNIQIVGDDLTVTNPKRIAQAVEKKACNCLLLKVNQIGSVTESIQACKLAQSNGWGVMVSHRSGETEDTFIADLVVGLCTGQIKTGAPCRSERLAKYNQLMRIEEALGDKAIFAGRKFRNPKAK
B5: RBM34 (protein, UniProt P42696 1-430, looked up)
RNA-binding protein 34: MALEGMSKRKRKRSVQEGENPDDGVRGSPPEDYRLGQVASSLFRGEHHSRGGTGRLASLFSSLEPQIQPVYVPVPKQTIKKTKRNEEEESTSQIERPLSQEPAKKVKAKKKHTNAEKKLADRESALASADLEEEIHQKQGQKRKNSQPGVKVADRKILDDTEDTVVSQRKKIQINQEEERLKNERTVFVGNLPVTCNKKKLKSFFKEYGQIESVRFRSLIPAEGTLSKKLAAIKRKIHPDQKNINAYVVFKEESAATQALKRNGAQIADGFRIRVDLASETSSRDKRSVFVGNLPYKVEESAIEKHFLDCGSIMAVRIVRDKMTGIGKGFGYVLFENTDSVHLALKLNNSELMGRKLRVMRSVNKEKFKQQNSNPRLKNVSKPKQGLNFTSKTAEGHPKSLFIGEKAVLLKTKKKGQKKSGRPKKQRKQK
B6: RBFOX2 (protein, UniProt O43251 1-390, looked up)
RNA binding protein fox-1 …: MQNEPLTPGYHGFPARDSQGNQEPTTTPDAMVQPFTTIPFPPPPQNGIPTEYGVPHTQDYAGQTGEHNLTLYGSTQAHGEQSSNSPSTQNGSLTTEGGAQTDGQQSQTQSSENSESKSTPKRLHVSNIPFRFRDPDLRQMFGQFGKILDVEIIFNERGSKGFGFVTFENSADADRAREKLHGTVVEGRKIEVNNATARVMTNKKMVTPYANGWKLSPVVGAVYGPELYAASSFQADVSLGNDAAVPLSGRGGINTYIPLISLPLVPGFPYPTAATTAAAFRGAHLRGRGRTVYGAVRAVPPTAIPAYPGVVYQDGFYGADLYGGYAAYRYAQPATATAATAAAAAAAAYSDGYGRVYTADPYHALAPAASYGVGAVASLYRGGYSRFAPY
B7: KIF23 (protein, UniProt Q02241 1-960, looked up)
Kinesin-like protein KIF23: MKSARAKTPRKPTVKKGSQTNLKDPVGVYCRVRPLGFPDQECCIEVINNTTVQLHTPEGYRLNRNGDYKETQYSFKQVFGTHTTQKELFDVVANPLVNDLIHGKNGLLFTYGVTGSGKTHTMTGSPGEGGLLPRCLDMIFNSIGSFQAKRYVFKSNDRNSMDIQCEVDALLERQKREAMPNPKTSSSKRQVDPEFADMITVQEFCKAEEVDEDSVYGVFVSYIEIYNNYIYDLLEEVPFDPIKPKPPQSKLLREDKNHNMYVAGCTEVEVKSTEEAFEVFWRGQKKRRIANTHLNRESSRSHSVFNIKLVQAPLDADGDNVLQEKEQITISQLSLVDLAGSERTNRTRAEGNRLREAGNINQSLMTLRTCMDVLRENQMYGTNKMVPYRDSKLTHLFKNYFDGEGKVRMIVCVNPKAEDYEENLQVMRFAEVTQEVEVARPVDKAICGLTPGRRYRNQPRGPVGNEPLVTDVVLQSFPPLPSCEILDINDEQTLPRLIEALEKRHNLRQMMIDEFNKQSNAFKALLQEFDNAVLSKENHMQGKLNEKEKMISGQKLEIERLEKKNKTLEYKIEILEKTTTIYEEDKRNLQQELETQNQKLQRQFSDKRRLEARLQGMVTETTMKWEKECERRVAAKQLEMQNKLWVKDEKLKQLKAIVTEPKTEKPERPSRERDREKVTQRSVSPSPVPLSSNYIAQISNGQQLMSQPQLHRRSNSCSSISVASCISEWEQKIPTYNTPLKVTSIARRRQQEPGQSKTCIVSDRRRGMYWTEGREVVPTFRNEIEIEEDHCGRLLFQPDQNAPPIRLRHRRSRSAGDRWVDHKPASNMQTETVMQPHVPHAITVSVANEKALAKCEKYMLTHQELASDGEIETKLIKGDIYKTRGGGQSVQFTDIETLKQESPNGSRKRRSSTVAPAQPDGAESEWTDVETRCSVAVEMRAGSQLGPGYQHHAQPKRKKP
B8: ABT1 (protein, UniProt Q9ULW3 1-272, looked up)
Activator of basal …: MEAEESEKAATEQEPLEGTEQTLDAEEEQEESEEAACGSKKRVVPGIVYLGHIPPRFRPLHVRNLLSAYGEVGRVFFQAEDRFVRRKKKAAAAAGGKKRSYTKDYTEGWVEFRDKRIAKRVAASLHNTPMGARRRSPFRYDLWNLKYLHRFTWSHLSEHLAFERQVRRQRLRAEVAQAKRETDFYLQSVERGQRFLAADGDPARPDGSWTFAQRPTEQELRARKAARPGGRERARLATAQDKARSNKGLLARIFGAPPPSESMEGPSLVRDS
B9: GGCT (protein, UniProt O75223 1-188, looked up)
Gamma-glutamylcyclotransferase: MANSGCKDVTGPDEESFLYFAYGSNLLTERIHLRNPSAAFFCVARLQDFKLDFGNSQGKTSQTWHGGIATIFQSPGDEVWGVVWKMNKSNLNSLDEQEGVKSGMYVVIEVKVATQEGKEITCRSYLMTNYESAPPSPQYKKIICMGAKENGLPLEYQEKLKAIEPNDYTGKVSEEIEDIIKKGETQTL

system: BAF complex subunits and histone proteins; assay: Mass spectrometry proteomics of purified HA-SS18 WT and HA-SS18-SSX1 complexes (Tables 5A-5E); set-up: species or system human; conditions: HA-SS18WT_CHR_peptides: protein identified in HA-SS18 WT BAF complex purification from nuclease-treated solubilized chromatin (CHR), HEK-293T

Total (total peptides), 1:
B1
B2
B3
B4
B5
B6
B7
B8
B9

Unique (unique peptides), 1:
B1
B2
B3
B4
B5
B6
B7
B8
B9
